Record: PubChem BioAssay AID1259254 (NCATS, 2017)
Aim: 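Finding genes that stop cells copying their DNA twice in one cycle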 (primary screen). Cells: human HCT116 colorectal cancer cells. Reagent: single siRNA against human genes. Duration: 3 days. Measured: 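Nuclei stained with Hoechst and imaged; cell-cycle phase assigned by DNA content; G2 share scaled per plate, non-targeting siRNA 0%, GMNN siRNA 100%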. Reading the numbers: G2 robust z-score and G2 cells, % of GMNN control: higher = more G2 cells, more excess DNA replication; raw share of cells in G2: higher = larger share of cells with G2 DNA content. Call rule: 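An siRNA counts as active if its G2 robust z-score lies at least 5 MADs above the screen median; here such calls match roughly 38% of GMNN control or more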.
In all, the deposit lists about 59,000 reagents; shown is an unselected part. About 1,550 of them (2.6%) count as active. 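G2 share is only a proxy for re-replication; each gene was hit by three separate siRNAs, and active genes were retested.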 The raw values are shown without normalisation. The numbers tell different reagents against one gene apart. No sequences are given here. The record does not give: the amount of reagent.

no.	gene	reagent no.	G2 robust z-score	G2 cells, % of GMNN control	raw share of cells in G2 (%)	Call
1	PELI3	1	-0.746	-2.28	2.75	inactive
2	PELI3	2	1.24	11.7	7.13	inactive
3	PELI3	3	0.0891	3.59	4.34	inactive
4	SLC7A10	1	1.61	14.3	9.55	inactive
5	SLC7A10	2	-0.258	1.15	4.81	inactive
6	SLC7A10	3	-0.97	-3.86	4.74	inactive
7	CSGALNACT1	1	-0.938	-3.63	4.84	inactive
8	CSGALNACT1	2	0.923	9.46	8.28	inactive
9	CSGALNACT1	3	7.61	56.5	24.7	active
10	PCDHGA6	1	4.17	32.3	17.8	inactive
11	PCDHGA6	2	-0.0571	2.57	7.55	inactive
12	PCDHGA6	3	1.14	11	8.37	inactive
13	FBXO42	1	0.506	6.53	5.94	inactive
14	FBXO42	2	-0.816	-2.77	3.1	inactive
15	FBXO42	3	-0.891	-3.3	2.1	inactive
16	CFAP73	1	-1.41	-6.97	1.38	inactive
17	CFAP73	2	-0.301	0.847	3.77	inactive
18	CFAP73	3	0.164	4.12	6.4	inactive
19	CDYL	1	1.79	15.6	11.1	inactive
20	CDYL	2	-1.14	-5.06	2.69	inactive
21	CDYL	3	-0.216	1.44	3.69	inactive
22	GRIN2A	1	1.17	11.2	9.36	inactive
23	GRIN2A	2	-1.07	-4.59	3.23	inactive
24	GRIN2A	3	-0.496	-0.523	4.17	inactive
25	TIMM17B	1	-0.0966	2.29	6.36	inactive
26	TIMM17B	2	-0.101	2.26	4.89	inactive
27	TIMM17B	3	0.618	7.32	6.07	inactive
28	CNP	1	2.68	21.8	13	inactive
29	CNP	2	-1.02	-4.18	2.66	inactive
30	CNP	3	-0.447	-0.179	4.9	inactive
31	CCDC61	1	-0.55	-0.903	3.74	inactive
32	CCDC61	2	-0.246	1.24	3.64	inactive
33	CCDC61	3	-0.524	-0.721	2.91	inactive
34	GOLPH3L	1	-1.06	-4.49	1.71	inactive
35	GOLPH3L	2	-0.808	-2.72	3.48	inactive
36	GOLPH3L	3	-0.768	-2.44	3.13	inactive
37	DSC3	1	-0.972	-3.87	2.76	inactive
38	DSC3	2	-1.24	-5.75	2.91	inactive
39	DSC3	3	1.27	11.9	9.35	inactive
40	TEX47	1	-0.484	-0.436	3.42	inactive
41	TEX47	2	-0.048	2.63	4.03	inactive
42	TEX47	3	-0.497	-0.528	3.03	inactive
43	MED15	1	-0.125	2.09	3.88	inactive
44	MED15	2	0.383	5.66	5.63	inactive
45	MED15	3	0.0921	3.62	5.79	inactive
46	ALG11	1	0.528	6.68	8.79	inactive
47	ALG11	2	6.14	46.2	23	active
48	ALG11	3	2.49	20.5	11.8	inactive
49	TARS3	1	0.442	6.08	7.57	inactive
50	TARS3	2	-0.401	0.149	4.54	inactive
51	TARS3	3	-0.528	-0.75	5.32	inactive
52	LINC01014	1	2.27	19	11.5	inactive
53	LINC01014	2	1.47	13.3	7.71	inactive
54	LINC01014	3	2.51	20.6	10.7	inactive
55	CASQ2	1	-0.528	-0.746	3.16	inactive
56	CASQ2	2	-0.505	-0.588	4.57	inactive
57	CASQ2	3	2.46	20.3	10.5	inactive
58	EDN1	1	-0.889	-3.29	4.04	inactive
59	EDN1	2	1.26	11.9	9.77	inactive
60	EDN1	3	-0.629	-1.46	3.14	inactive
61	CLK3	1	-1.13	-4.96	3.97	inactive
62	CLK3	2	-0.543	-0.855	5.12	inactive
63	CLK3	3	-0.844	-2.97	2.98	inactive
64	H4C16	1	-0.584	-1.14	3.63	inactive
65	H4C16	2	-0.398	0.17	3.38	inactive
66	H4C16	3	-0.198	1.58	2.28	inactive
67	GLP2R	1	0.0251	3.14	6.97	inactive
68	GLP2R	2	0.0702	3.46	5.73	inactive
69	GLP2R	3	-0.597	-1.23	2.89	inactive

Active calls, of those listed so far:
gene	reagent no.	G2 robust z-score	G2 cells, % of GMNN control	raw share of cells in G2 (%)	Call
CSGALNACT1	3	7.61	56.5	24.7	active
ALG11	2	6.14	46.2	23	active
